{"sequences": {"note": "By UniProt entry, the sequences of proteins in these tests, tags left out.", "UniProt P22001, whole entry": "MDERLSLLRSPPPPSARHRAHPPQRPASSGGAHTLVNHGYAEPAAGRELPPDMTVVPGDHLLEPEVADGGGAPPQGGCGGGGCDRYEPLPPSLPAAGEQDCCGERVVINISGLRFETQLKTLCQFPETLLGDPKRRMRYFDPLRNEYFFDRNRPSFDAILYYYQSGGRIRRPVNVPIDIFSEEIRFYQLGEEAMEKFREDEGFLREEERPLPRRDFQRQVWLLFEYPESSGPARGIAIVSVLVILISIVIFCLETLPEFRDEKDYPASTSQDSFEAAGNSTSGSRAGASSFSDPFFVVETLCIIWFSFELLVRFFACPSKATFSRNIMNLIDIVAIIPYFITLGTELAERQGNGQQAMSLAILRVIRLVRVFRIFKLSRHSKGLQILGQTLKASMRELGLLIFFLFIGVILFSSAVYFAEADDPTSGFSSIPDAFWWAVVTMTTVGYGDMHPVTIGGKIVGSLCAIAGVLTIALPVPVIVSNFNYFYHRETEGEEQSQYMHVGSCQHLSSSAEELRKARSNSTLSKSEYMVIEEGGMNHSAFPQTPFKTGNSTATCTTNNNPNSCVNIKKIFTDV"}, "source": "paper PMC3079779", "about": "(Toxicology and applied pharmacology, 2011)", "target": "human KV1.3 voltage gated K+ channel (Homo sapiens, UniProt P22001)", "experiment": "KV1.3 thallium influx assay in KV1.3 stably transfected CHO DUKX cells", "data": [{"smiles": "CC(C)(C)CC(C)(C)c1ccc(OCCOCC[N+](C)(C)Cc2ccccc2)cc1", "note": "[benzethonium chloride]", "values": [{"measurement": "KV 1.3 Efficacy (inhibition of thallium influx as a % of positive control)", "result": "93 ± 20", "unit": "%"}]}]}
